According to paper PMC7348807:
pKd: −log10 of the molar value. For at least one entry, the source does not settle the construct or the ends of the probe.

Tested on: thrombin
Experiment: binding assay
Details: earlier estimate for the same aptamer-thrombin system; PBS with 0.02% sodium azide and 1 mg/mL BSA; incubation 2 h (50 pM, 1 nM FA) or 6.5 h (10 pM FA); thrombin 5 pM to 1 uM; pH and temperature not stated; commercial protein; label: 5' Alexa Fluor 647; folded or branched DNA

With AGTCCGTGGTAGGGCAGGTTGGGGTGACT the pKd was 9.30.
